Publication PMC3877063
No constants are given. Whether binding was seen depends on the method and setting. Some results given as binding are weak or reduced against the parent protein; the word gives no strength.

Sequences of proteins named here, by UniProt entry; tags and fusion partners are left off. A change or cut given only in a name is not applied to a line headed by its entry. Residues count along the entry.
UniProt O60603: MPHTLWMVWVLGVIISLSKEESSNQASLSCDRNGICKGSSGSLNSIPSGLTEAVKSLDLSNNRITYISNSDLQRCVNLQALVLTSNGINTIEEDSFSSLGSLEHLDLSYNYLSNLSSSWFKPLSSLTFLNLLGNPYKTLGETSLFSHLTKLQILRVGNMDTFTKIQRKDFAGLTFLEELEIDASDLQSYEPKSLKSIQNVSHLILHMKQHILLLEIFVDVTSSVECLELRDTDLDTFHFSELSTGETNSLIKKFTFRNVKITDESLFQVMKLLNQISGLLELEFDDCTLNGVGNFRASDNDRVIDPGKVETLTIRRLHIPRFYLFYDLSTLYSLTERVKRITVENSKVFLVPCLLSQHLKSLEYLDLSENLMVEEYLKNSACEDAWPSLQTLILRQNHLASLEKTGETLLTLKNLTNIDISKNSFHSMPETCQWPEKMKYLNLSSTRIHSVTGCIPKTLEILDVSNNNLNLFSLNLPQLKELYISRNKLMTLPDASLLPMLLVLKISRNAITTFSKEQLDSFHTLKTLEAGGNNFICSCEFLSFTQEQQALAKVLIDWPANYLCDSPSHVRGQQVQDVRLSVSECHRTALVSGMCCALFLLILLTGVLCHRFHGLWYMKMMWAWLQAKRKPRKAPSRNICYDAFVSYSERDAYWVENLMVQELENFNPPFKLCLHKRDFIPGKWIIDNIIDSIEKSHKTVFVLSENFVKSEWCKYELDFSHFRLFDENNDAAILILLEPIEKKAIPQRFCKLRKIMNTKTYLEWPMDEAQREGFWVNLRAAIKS
recombinant soluble form of extracellular TLR2 domain (sTLR2): residues 21-587 of O60603
UniProt O00206: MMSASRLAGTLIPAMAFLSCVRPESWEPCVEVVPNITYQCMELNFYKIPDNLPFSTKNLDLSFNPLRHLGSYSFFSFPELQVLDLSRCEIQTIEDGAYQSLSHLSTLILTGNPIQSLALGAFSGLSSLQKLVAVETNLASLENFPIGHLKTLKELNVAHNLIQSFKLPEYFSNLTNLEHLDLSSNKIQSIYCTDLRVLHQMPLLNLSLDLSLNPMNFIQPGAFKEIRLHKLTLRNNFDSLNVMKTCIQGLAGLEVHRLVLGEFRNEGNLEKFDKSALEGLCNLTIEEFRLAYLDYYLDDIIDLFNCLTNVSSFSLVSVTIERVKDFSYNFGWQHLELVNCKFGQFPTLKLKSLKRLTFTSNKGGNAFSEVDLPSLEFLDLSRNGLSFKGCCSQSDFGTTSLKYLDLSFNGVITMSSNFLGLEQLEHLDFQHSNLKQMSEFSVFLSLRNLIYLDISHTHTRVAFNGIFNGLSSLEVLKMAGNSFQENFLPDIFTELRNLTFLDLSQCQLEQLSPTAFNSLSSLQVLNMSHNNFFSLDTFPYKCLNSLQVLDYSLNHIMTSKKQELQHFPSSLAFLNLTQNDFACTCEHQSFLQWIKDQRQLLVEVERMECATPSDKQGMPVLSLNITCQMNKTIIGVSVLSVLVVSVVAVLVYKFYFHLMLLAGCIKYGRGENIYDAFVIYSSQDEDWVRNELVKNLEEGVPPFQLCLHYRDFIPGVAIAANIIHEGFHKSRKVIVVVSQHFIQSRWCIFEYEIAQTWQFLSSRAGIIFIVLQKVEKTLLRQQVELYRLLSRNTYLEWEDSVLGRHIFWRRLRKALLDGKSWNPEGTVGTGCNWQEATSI
Toll-like receptor 4 (TLR4) expressed on PMA-activated THP-1 cells (human (endogenous in THP-1)): residues 24-839 of O00206
soluble form of recombinant TLR4 extracellular domain (sTLR4): residues 24-631 of O00206
UniProt P11226, residues 21-248: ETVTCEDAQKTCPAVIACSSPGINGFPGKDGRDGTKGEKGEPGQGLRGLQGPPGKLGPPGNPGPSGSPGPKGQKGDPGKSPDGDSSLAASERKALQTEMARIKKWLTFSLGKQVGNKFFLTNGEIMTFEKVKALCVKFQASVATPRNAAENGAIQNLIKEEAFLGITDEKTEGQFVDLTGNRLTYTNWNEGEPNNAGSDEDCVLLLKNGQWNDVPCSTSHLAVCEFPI

Tests used:
deglycosylated sTLR2 = deglycosylated sTLR2 (UniProt O60603); experiment: co-IP; 2 ug MBL incubated with 2 ug sTLR2 or sTLR4 at 37°C for 2 h in 20 mM Tris pH 7.4, 0.15 M NaCl, 5 mM CaCl2, 3 mg/ml BSA; precipitated with anti-sTLR2 or anti-sTLR4 pAb and protein G-Sepharose; blot with anti-human MBL mAb HYB 131-11; both purified
deglycosylated sTLR4 = deglycosylated sTLR4 (UniProt O00206); experiment: as above
[1] = biological target: soluble form of recombinant TLR4 extracellular domain (sTLR4) (UniProt O00206); experiment: ELISA; sTLR2 or sTLR4 (10 ug/ml, 50 ul/well) coated onto microtiter wells; MBL in 10 mM Hepes pH 7.4, 0.15 M NaCl, 5 mM CaCl2, 5 mg/ml BSA, 37°C for 5 h; detected with anti-MBL mAb HYB 131-11; both purified
[2] = biological target: recombinant soluble form of extracellular TLR2 domain (sTLR2) (UniProt O60603); experiment: as above
[3] = biological target: Toll-like receptor 2 (TLR2) expressed on PMA-activated THP-1 cells (human (endogenous in THP-1)) (UniProt O60603); experiment: flow cytometry on cells; PMA-activated THP-1 cells in Tris-buffered saline pH 7.4, 5 mM CaCl2, 1% BSA; preincubated 10 min with anti-TLR2 (TL2.1) or anti-TLR4 (HTA125) mAb or isotype control, then biotinylated MBL, ExtrAvidin-FITC; only the binder purified
[4] = biological target: Toll-like receptor 4 (TLR4) expressed on PMA-activated THP-1 cells (human (endogenous in THP-1)) (UniProt O00206); experiment: as above

binding (deglycosylated sTLR2)	binding (deglycosylated sTLR4)	binding [1]	binding [2]	binding [3]	binding [4]	Substance
binds	binds	binds	binds			Mannan-binding lectin (MBL), purified from human plasma (from UniProt P11226 21-248)
				binds	binds	biotinylated MBL (from UniProt P11226 21-248)
